According to patent publication US20230339916A1, “PLANT GROWTH REGULATOR COMPOUNDS” (SYNGENTA CROP PROTECTION AG, priority 2020, published 2023):
Some entries share one result that the patent states for a list of compounds.

Chains of the proteins cited; added tags and fusions are not shown.
UniProt B6TRW7, entry or part of it: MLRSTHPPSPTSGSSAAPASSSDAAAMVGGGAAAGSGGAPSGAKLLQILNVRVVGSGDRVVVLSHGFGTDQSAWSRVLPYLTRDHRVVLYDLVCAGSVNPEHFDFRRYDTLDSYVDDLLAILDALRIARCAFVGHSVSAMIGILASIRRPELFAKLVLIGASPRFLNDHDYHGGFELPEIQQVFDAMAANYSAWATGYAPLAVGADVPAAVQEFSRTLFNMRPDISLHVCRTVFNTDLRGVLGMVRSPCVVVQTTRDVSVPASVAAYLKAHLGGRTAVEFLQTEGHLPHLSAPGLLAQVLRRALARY

These compounds were tested against ZmD14 (strigolactone receptor D14) (Zea mays, UniProt B6TRW7) (assay: Yoshimulactone Green (YLG) displacement assay). Conditions: ZmD14 1 μg, YLG 1 μM, PBS 0.1% BSA, 1% DMSO; 8-point dilution curve, 30 μM top concentration; read-out: IC50 (half-maximal inhibitory concentration, YLG hydrolysis by D14).
Format: binding

IC50, < 5 µM:
CCOC(=O)/C(=C/OC1C=C(C)C(=O)O1)n1ccc2ccccc21 (stereo not drawn) [Compound I-1-Z, ethyl (Z)-2-indol-1-yl-3-[(4-methyl-5-oxo-2H-furan-2-yl)oxy]prop-2-enoate]
CCOC(=O)/C(=C/OC1C=C(C)C(=O)O1)n1ccc2cc(C(F)(F)F)ccc21 (stereo not drawn) [Compound I-2-Z, ethyl (Z)-3-[(4-methyl-5-oxo-2H-furan-2-yl)oxy]-2-[5-(trifluoromethyl)indol-1-yl]prop-2-enoate]
CCOC(=O)/C(=C/OC1C=C(C)C(=O)O1)n1ccc2cc(F)ccc21 (stereo not drawn) [Compound I-3-Z, ethyl (Z)-2-(5-fluoroindol-1-yl)-3-[(4-methyl-5-oxo-2H-furan-2-yl)oxy]prop-2-enoate]
CCOC(=O)/C(=C/OC1C=C(C)C(=O)O1)n1ccc2cc(-c3ccccc3)ccc21 (stereo not drawn) [Compound I-5-Z, ethyl (Z)-3-[(4-methyl-5-oxo-2H-furan-2-yl)oxy]-2-(5-phenylindol-1-yl)prop-2-enoate]
CCOC(=O)/C(=C/OC1OC(=O)C(C)=C1C)n1ccc2ccccc21 (stereo not drawn) [Compound I-7-Z, ethyl (Z)-3-[(3,4-dimethyl-5-oxo-2H-furan-2-yl)oxy]-2-indol-1-yl-prop-2-enoate]
CCOC(=O)/C(=C/OC1OC(=O)C(C)=C1C)n1ccc2cc(C(F)(F)F)ccc21 (stereo not drawn) [Compound I-8-Z, ethyl (Z)-3-[(3,4-dimethyl-5-oxo-2H-furan-2-yl)oxy]-2-[5-(trifluoromethyl)indol-1-yl]prop-2-enoate]
CCOC(=O)/C(=C/OC1OC(=O)C(C)=C1C)n1ccc2cc(F)ccc21 (stereo not drawn) [Compound I-9-Z, ethyl (Z)-3-[(3,4-dimethyl-5-oxo-2H-furan-2-yl)oxy]-2-(5-fluoroindol-1-yl)prop-2-enoate]
CCOC(=O)/C(=C/OC1OC(=O)C(C)=C1C)n1ccc2cc(-c3ccccc3)ccc21 (stereo not drawn) [Compound I-11-Z, ethyl (Z)-3-[(3,4-dimethyl-5-oxo-2H-furan-2-yl)oxy]-2-(5-phenylindol-1-yl)prop-2-enoate]
CCOC(=O)/C(=C/OC1C=C(C)C(=O)O1)n1cc(C#N)c2ccccc21 (stereo not drawn) [Compound I-25-Z, ethyl (Z)-2-(3-cyanoindol-1-yl)-3-[(4-methyl-5-oxo-2H-furan-2-yl)oxy]prop-2-enoate]
CCOC(=O)/C(=C/OC1OC(=O)C(C)=C1C)n1cc(C#N)c2ccccc21 (stereo not drawn) [Compound I-26-Z, ethyl (Z)-2-(3-cyanoindol-1-yl)-3-[(3,4-dimethyl-5-oxo-2H-furan-2-yl)oxy]prop-2-enoate]
CCOC(=O)/C(=C/OC1C=C(C)C(=O)O1)n1cc(C)c2ccccc21 (stereo not drawn) [Compound I-27-Z, ethyl (Z)-2-(3-methylindol-1-yl)-3-[(4-methyl-5-oxo-2H-furan-2-yl)oxy]prop-2-enoate]
CCOC(=O)/C(=C/OC1OC(=O)C(C)=C1C)n1cc(C)c2ccccc21 (stereo not drawn) [Compound I-28-Z, ethyl (Z)-3-[(3,4-dimethyl-5-oxo-2H-furan-2-yl)oxy]-2-(3-methylindol-1-yl)prop-2-enoate]
CCOC(=O)/C(=C/OC1C=C(C)C(=O)O1)n1c(C)c(C)c2ccccc21 (stereo not drawn) [Compound I-29-Z, ethyl (Z)-2-(2,3-dimethylindol-1-yl)-3-[(4-methyl-5-oxo-2H-furan-2-yl)oxy]prop-2-enoate]
CCOC(=O)/C(=C/OC1OC(=O)C(C)=C1C)n1c(C)c(C)c2ccccc21 (stereo not drawn) [Compound I-30-Z, ethyl (Z)-2-(2,3-dimethylindol-1-yl)-3-[(3,4-dimethyl-5-oxo-2H-furan-2-yl)oxy]prop-2-enoate]
CCOC(=O)/C(=C/OC1C=C(C)C(=O)O1)n1nnc2ccccc21 (stereo not drawn) [Compound I-31-Z, ethyl (Z)-2-(benzotriazol-1-yl)-3-[(4-methyl-5-oxo-2H-furan-2-yl)oxy]prop-2-enoate]
CNC(=O)/C(=C\OC1C=C(C)C(=O)O1)n1nnc2ccccc21 (stereo not drawn) [Compound I-33-E, (E)-2-(benzotriazol-1-yl)-N-methyl-3-[(4-methyl-5-oxo-2H-furan-2-yl)oxy]prop-2-enamide]
CC1=CC(O/C=C(/C(=O)N(C)C)n2nnc3ccccc32)OC1=O (stereo not drawn) [Compound I-34-Z, (Z)-2-(benzotriazol-1-yl)-N,N-dimethyl-3-[(4-methyl-5-oxo-2H-furan-2-yl)oxy]prop-2-enamide]
CCOC(=O)/C(=C/OC1OC(=O)C(C)=C1C)n1nnc2ccccc21 (stereo not drawn) [Compound I-35-Z, ethyl (Z)-2-(benzotriazol-1-yl)-3-[(3,4-dimethyl-5-oxo-2H-furan-2-yl)oxy]prop-2-enoate]
CNC(=O)/C(=C/OC1OC(=O)C(C)=C1C)n1nnc2ccccc21 (stereo not drawn) [Compound I-37-Z, (Z)-2-(benzotriazol-1-yl)-3-[(3,4-dimethyl-5-oxo-2H-furan-2-yl)oxy]-N-methyl-prop-2-enamide]
CCOC(=O)/C(=C/OC1C=C(C)C(=O)O1)n1ncc2ccccc21 (stereo not drawn) [Compound I-42-Z, ethyl (Z)-2-indazol-1-yl-3-[(4-methyl-5-oxo-2H-furan-2-yl)oxy]prop-2-enoate]
CC1=CC(O/C=C(/C#N)n2ncc3ccccc32)OC1=O (stereo not drawn) [Compound I-43-Z, (Z)-2-indazol-1-yl-3-[(4-methyl-5-oxo-2H-furan-2-yl)oxy]prop-2-enenitrile]
CCOC(=O)/C(=C/OC1OC(=O)C(C)=C1C)n1ncc2ccccc21 (stereo not drawn) [Compound I-46-Z, ethyl (Z)-3-[(3,4-dimethyl-5-oxo-2H-furan-2-yl)oxy]-2-indazol-1-yl-prop-2-enoate]
CC1=C(C)C(O/C=C(\C#N)n2ncc3ccccc32)OC1=O (stereo not drawn) [Compound I-47-E, (E)-3-[(3,4-dimethyl-5-oxo-2H-furan-2-yl)oxy]-2-indazol-1-yl-prop-2-enenitrile]
CC1=C(C)C(O/C=C(/C#N)n2ncc3ccccc32)OC1=O (stereo not drawn) [Compound I-47-Z, (Z)-3-[(3,4-dimethyl-5-oxo-2H-furan-2-yl)oxy]-2-indazol-1-yl-prop-2-enenitrile]
CCOC(=O)/C(=C/OC1C=C(C)C(=O)O1)n1nc(F)c2ccccc21 (stereo not drawn) [Compound I-50-Z, ethyl (Z)-2-(3-fluoroindazol-1-yl)-3-[(4-methyl-5-oxo-2H-furan-2-yl)oxy]prop-2-enoate]
CCOC(=O)/C(=C/OC1OC(=O)C(C)=C1C)n1nc(F)c2ccccc21 (stereo not drawn) [Compound I-51-Z, ethyl (Z)-3-[(3,4-dimethyl-5-oxo-2H-furan-2-yl)oxy]-2-(3-fluoroindazol-1-yl)prop-2-enoate]
CCOC(=O)/C(=C/OC1C=C(C)C(=O)O1)n1cnc2ccccc21 (stereo not drawn) [Compound I-56-Z, ethyl (Z)-2-(benzimidazol-1-yl)-3-[(4-methyl-5-oxo-2H-furan-2-yl)oxy]prop-2-enoate]
CCOC(=O)/C(=C/OC1OC(=O)C(C)=C1C)n1cnc2ccccc21 (stereo not drawn) [Compound I-57-Z, ethyl (Z)-2-(benzimidazol-1-yl)-3-[(3,4-dimethyl-5-oxo-2H-furan-2-yl)oxy]prop-2-enoate]
CCOC(=O)/C(=C/OC1OC(=O)C(C)=C1C)n1c(C)nc2ccccc21 (stereo not drawn) [Compound I-59-Z, ethyl (Z)-3-[(3,4-dimethyl-5-oxo-2H-furan-2-yl)oxy]-2-(2-methylbenzimidazol-1-yl)prop-2-enoate]
CCOC(=O)/C(=C/OC1C=C(C)C(=O)O1)n1cnc2c(N(C)C)nc(F)nc21 (stereo not drawn) [Compound I-60-Z, ethyl (Z)-2-[6-(dimethylamino)-2-fluoro-purin-9-yl]-3-[(4-methyl-5-oxo-2H-furan-2-yl)oxy]prop-2-enoate]
CCOC(=O)/C(=C/OC1OC(=O)C(C)=C1C)n1cnc2c(N(C)C)nc(F)nc21 (stereo not drawn) [Compound I-61-Z, ethyl (Z)-2-[6-(dimethylamino)-2-fluoro-purin-9-yl]-3-[(3,4-dimethyl-5-oxo-2H-furan-2-yl)oxy]prop-2-enoate]
CCOC(=O)/C(=C/OC1C=C(C)C(=O)O1)n1ccc2cncnc21 (stereo not drawn) [Compound I-62-Z, ethyl (Z)-3-[(4-methyl-5-oxo-2H-furan-2-yl)oxy]-2-pyrrolo[2,3-d]pyrimidin-7-yl-prop-2-enoate]
CCOC(=O)/C(=C/OC1C=C(C)C(=O)O1)n1c(=O)sc2ccccc21 (stereo not drawn) [Compound I-64-Z, ethyl (Z)-3-[(4-methyl-5-oxo-2H-furan-2-yl)oxy]-2-(2-oxo-1,3-benzothiazol-3-yl)prop-2-enoate]
CCOC(=O)/C(=C/OC1OC(=O)C(C)=C1C)n1c(=O)sc2ccccc21 (stereo not drawn) [Compound I-65-Z]
CCOC(=O)/C(=C/OC1C=C(C)C(=O)O1)N1C(=O)C2(CC2)c2ccccc21 (stereo not drawn) [Compound I-66-Z, ethyl (Z)-3-[(4-methyl-5-oxo-2H-furan-2-yl)oxy]-2-(2′-oxospiro[cyclopropane-1,3′-indoline]-1′-yl)prop-2-enoate]
CCOC(=O)/C(=C/OC1OC(=O)C(C)=C1C)N1C(=O)C2(CC2)c2ccccc21 (stereo not drawn) [Compound I-67-Z, ethyl (Z)-3-[(3,4-dimethyl-5-oxo-2H-furan-2-yl)oxy]-2-(2′-oxospiro[cyclopropane-1,3′-indoline]-1′-yl)prop-2-enoate]
CCOC(=O)/C(=C/OC1C=C(C)C(=O)O1)n1c(=O)oc2ccccc21 (stereo not drawn) [Compound I-68-Z, ethyl (Z)-3-[(4-methyl-5-oxo-2H-furan-2-yl)oxy]-2-(2-oxo-1,3-benzoxazol-3-yl)prop-2-enoate]
CCOC(=O)/C(=C/OC1OC(=O)C(C)=C1C)n1c(=O)oc2ccccc21 (stereo not drawn) [Compound I-69-Z, ethyl (Z)-3-[(3,4-dimethyl-5-oxo-2H-furan-2-yl)oxy]-2-(2-oxo-1,3-benzoxazol-3-yl)prop-2-enoate]
CCOC(=O)/C(=C/OC1C=C(C)C(=O)O1)N1CCc2ccccc21 (stereo not drawn) [Compound I-70-Z, ethyl (Z)-2-indolin-1-yl-3-[(4-methyl-5-oxo-2H-furan-2-yl)oxy]prop-2-enoate]
